## Results of single-concentration screens

By UniProt entry, the sequences of proteins in these tests, tags left out.
UniProt P9WPC5, whole entry: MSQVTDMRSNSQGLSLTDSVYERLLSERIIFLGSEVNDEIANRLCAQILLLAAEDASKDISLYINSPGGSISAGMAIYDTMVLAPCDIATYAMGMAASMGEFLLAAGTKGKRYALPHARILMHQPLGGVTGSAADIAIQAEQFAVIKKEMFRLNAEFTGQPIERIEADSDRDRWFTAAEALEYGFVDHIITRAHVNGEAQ
UniProt P9WPC3, whole entry partner: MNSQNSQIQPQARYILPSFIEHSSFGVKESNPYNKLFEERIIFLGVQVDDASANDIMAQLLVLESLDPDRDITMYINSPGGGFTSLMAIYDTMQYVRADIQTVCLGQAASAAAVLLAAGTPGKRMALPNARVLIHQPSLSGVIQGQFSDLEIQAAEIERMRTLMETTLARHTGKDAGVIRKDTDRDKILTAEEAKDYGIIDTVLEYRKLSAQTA
UniProt P9WNZ1, whole entry: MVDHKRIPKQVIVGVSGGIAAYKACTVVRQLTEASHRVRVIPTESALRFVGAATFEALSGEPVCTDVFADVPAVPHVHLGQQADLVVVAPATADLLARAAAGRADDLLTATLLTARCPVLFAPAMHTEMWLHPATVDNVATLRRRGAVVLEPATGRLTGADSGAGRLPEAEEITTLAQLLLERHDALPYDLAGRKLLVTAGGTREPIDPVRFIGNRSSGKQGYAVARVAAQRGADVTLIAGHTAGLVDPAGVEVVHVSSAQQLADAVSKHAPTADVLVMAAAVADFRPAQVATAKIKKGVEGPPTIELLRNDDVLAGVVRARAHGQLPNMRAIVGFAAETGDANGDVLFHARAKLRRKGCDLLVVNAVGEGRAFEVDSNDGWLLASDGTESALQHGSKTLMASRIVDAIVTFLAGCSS

Source: ChEMBL document CHEMBL3988442, “University of Dundee, Small-Polar-MMV Screening Library” (2021).

ClpP1P2: 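Protease assay of ClpP1P2, read by the AMC dye that it sets free. Target: ClpP1P2, Mycobacterium tuberculosis (UniProt P9WPC5 and UniProt P9WPC3). Concentration: 50 µM. Direction is inferred from only a few compounds that gave an IC50; most scored high, so higher reads as stronger inhibition. Most other retested compounds had strongly negative values. Of about 69,000 compounds tested this way, about 10 (0.015%) reached 50% or more in at least one test.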
CoaBC: 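Coenzyme A biosynthesis protein CoaBC, Mycobacterium tuberculosis (UniProt P9WNZ1). Enzyme assay of CoaBC with a phosphate dye (Biomol Green) read at 650 nm. Compounds at 30 µM. Direction is inferred from only a few compounds that gave an IC50; most scored high, so higher reads as stronger inhibition. Most strong results did not repeat in a second test. Of about 67,000 compounds tested this way, about 40 (0.06%) reached 50% or more in at least one test.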

Results are given as percent effect.
The record does not define 0% and 100%; most values in the screen are far below 50% and negative numbers occur (in some assays of this library far below -100).
The compounds are a random part of those screened.

* c1ccc(CNc2ncc(CN3CC[C@H]4CC[C@@H](C3)N4)cn2)cc1 : ClpP1P2: -4.576%; CoaBC: -1.966%
* CN(Cc1ccco1)[C@@H]1CN(Cc2cccs2)C[C@@H]2CCCO[C@@H]21 : ClpP1P2: -9.346%; CoaBC: 2.101%
* Cc1ccc(N2CCC3(CCN(C(=O)c4ccsc4)C3)CC2)nn1 : ClpP1P2: 6.595%; CoaBC: 6.157%
* CS(=O)(=O)NCc1cccc(COC2CCCCC2)c1 : ClpP1P2: -2.397%; CoaBC: -0.3236%
* COC(=O)c1ccc(N(C(=O)c2ccncc2)C(C)C)c(C)c1 : ClpP1P2: 3.117%; CoaBC: -4.968%
* CCCc1cncnc1N1CCC(NCc2ccc(O)cc2)CC1 : ClpP1P2: -19.12%; CoaBC: -3.226%
* Cn1cc(S(=O)(=O)N2CCCC2Cn2ccnc2)cn1 (centres unmarked) : ClpP1P2: -1.483%
* O=C(c1cnccn1)N1CCN2C[C@H](Oc3cccnc3)C[C@H]2C1 : ClpP1P2: 0.247%; CoaBC: 3.185%
* Clc1ccc(-c2cnc(CNC3CCc4ncnn4C3)o2)cc1 (centres unmarked) : ClpP1P2: 7.278%; CoaBC: 6.925%
* COc1cc(N2CCC(c3nccn3Cc3ccccc3)CC2)ncn1 : ClpP1P2: -10.35%; CoaBC: 4.156%
* COc1cccc(S(=O)(=O)CCN2CCC3(CC2)OCCO3)c1 : ClpP1P2: -1.367%; CoaBC: 5.804%
* O=C(O)[C@@H]1CCN(C(=O)Cc2ccccn2)[C@@H]1c1ccc(F)cc1 : ClpP1P2: -0.4515%; CoaBC: -3.088%
* CC(Nc1ncnc2c1NC(=O)CN2)c1ccc2c(c1)OCO2 (centres unmarked) : ClpP1P2: -16.79%; CoaBC: 5.612%
* O=S(=O)(NCC1COc2ccccc2C1)N1CCOCC1 (centres unmarked) : ClpP1P2: -17%; CoaBC: 7.614%
* CC(C)Oc1ncccc1CNC(=O)N1CCOCC1 : ClpP1P2: -2.344%; CoaBC: -0.6098%
* O=S1(=O)C[C@@H]2[C@H](C1)N(S(=O)(=O)N1CCCC1)CCN2Cc1ccccc1 : ClpP1P2: -1.641%
* CC(C)c1nnc2n1CCN(CC(=O)Nc1sccc1C#N)C2 : ClpP1P2: -4.377%; CoaBC: 0.8347%
* CCc1cccc(N2CCC(NC(=O)c3ccncc3)CC2)c1 : ClpP1P2: -0.1353%; CoaBC: 2.672%
* COC(=O)CC1c2cccnc2C(=O)N1Cc1ccccc1 (centres unmarked) : ClpP1P2: -7.218%; CoaBC: -0.1227%
* COc1ccc(Cl)cc1CCNC(=O)NCc1cnn(C)c1C : ClpP1P2: -10.35%; CoaBC: 2.57%
* CN(C)C(=O)c1noc2c1CN(C(=O)CCC1CCCCN1C)CC2 (centres unmarked) : ClpP1P2: -4.786%; CoaBC: 2.571%
* CC(C)(CO)Nc1cc(-c2ccncc2)ncn1 : ClpP1P2: 2.172%; CoaBC: -1.325%
* CN(C)c1ncccc1CNS(=O)(=O)c1ccccc1Cl : ClpP1P2: -0.5436%; CoaBC: 0.2389%
* Cc1cc2ccccc2n1CC(=O)Nc1ccnn1CC1CCOC1 (centres unmarked) : ClpP1P2: -3.337%; CoaBC: 3.181%
* Cc1nc(C)n(CC2CCCN2Cc2cn3cc(Cl)ccc3n2)n1 (centres unmarked) : ClpP1P2: -24.98%; CoaBC: 3.133%
* CC(NS(N)(=O)=O)c1ccc(OCc2ccc(F)cc2)cc1 (centres unmarked) : ClpP1P2: -0.4123%; CoaBC: 5.825%
* Cn1cc(C2(C)CN(Cc3ccc(N4CCCC4)nc3)CCO2)cn1 (centres unmarked) : ClpP1P2: -3.548%; CoaBC: 6.013%

3 of the entries, repeated:

{"structure": "CCc1cccc(N2CCC(NC(=O)c3ccncc3)CC2)c1", "ClpP1P2": -0.1353, "CoaBC": 2.672}
{"structure": "COc1cc(N2CCC(c3nccn3Cc3ccccc3)CC2)ncn1", "ClpP1P2": -10.35, "CoaBC": 4.156}
{"structure": "O=S1(=O)C[C@@H]2[C@H](C1)N(S(=O)(=O)N1CCCC1)CCN2Cc1ccccc1", "ClpP1P2": -1.641}